This is one part of the list.
What follows are sequences tested against T1, OsSMF1 (Oryza sativa, UniProt Q6ZLB0 1-436) (assay: protein-binding microarray (RPBM); PBS, 2% BSA, 51.3 ng/ul salmon testes DNA, 50 uM zinc acetate, 200 nM TF, 25 C, 1 h; high values mean tight binding). Conditions: protein: recombinant; tags: N-terminal polyhistidine and DsRed monomer fusion (pET32a); chain copies: 2; label: CyDye5-dUTP incorporated in the synthesized complementary strand; 3' TTTTT single-stranded linker to array surface; dsDNA, one strand shown.
T1 sequence: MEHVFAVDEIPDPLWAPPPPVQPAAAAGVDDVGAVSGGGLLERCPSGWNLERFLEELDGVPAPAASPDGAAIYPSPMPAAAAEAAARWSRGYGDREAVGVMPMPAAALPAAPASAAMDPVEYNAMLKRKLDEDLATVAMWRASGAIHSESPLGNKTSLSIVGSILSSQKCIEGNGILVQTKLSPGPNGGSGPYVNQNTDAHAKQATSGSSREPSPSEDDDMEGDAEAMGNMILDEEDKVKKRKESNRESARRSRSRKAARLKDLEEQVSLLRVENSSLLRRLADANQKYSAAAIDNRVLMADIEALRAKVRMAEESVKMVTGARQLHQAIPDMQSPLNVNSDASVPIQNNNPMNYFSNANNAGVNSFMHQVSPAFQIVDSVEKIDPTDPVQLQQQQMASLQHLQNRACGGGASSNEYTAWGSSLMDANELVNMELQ
In short: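 Binding signal here means per-feature fluorescence intensity in arbitrary units. The values were read on an Axon 4000B scanner after a custom Agilent array, double-stranded by primer extension with Cy5-dUTP, was incubated with 200 nM protein at 25 °C for 1 h in PBS with 2% BSA, salmon testes DNA and 50 µM zinc acetate, then washed. The proteins were transcription factors with an N-terminal polyhistidine tag and DsRed, expressed in E. coli BL21-CodonPlus and purified on Ni–NTA.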

Row | Sequence | binding signal
1 | CGCCTTATCCTCCCGCCTTTTCACGTCCCGCCACGCCGACCGGAGTCACCTAGTGCAG | 4060 fluorescence intensity (a.u.)
2 | GCCACCACCACCACCGTGACCTCGCGTCAGTCAGTCCCGTCGGAGTCACCTAGTGCAG | 3960 fluorescence intensity (a.u.)
3 | TTGCATCAAAAGGTCCTAGTGTGACTGCTTATGTTGCAGTCGGAGTCACCTAGTGCAG | 3900 fluorescence intensity (a.u.)
4 | CAATGGGCTGCGCCTTGACTGTACATCTGGGATGGGCTTACGGAGTCACCTAGTGCAG | 3830 fluorescence intensity (a.u.)
5 | GGGCGACGTGGCGCCATCCAGAGCGCGCCACGTCGCCCTCCGGAGTCACCTAGTGCAG | 11400 fluorescence intensity (a.u.)
6 | GGATGGGTTCACAGGCCACGTGGTGGACCATCTCCACCTCCGGAGTCACCTAGTGCAG | 7560 fluorescence intensity (a.u.)
7 | GAATAAGGGGTGATGCCATTGACATGTGGATCACACTGTTCGGAGTCACCTAGTGCAG | 3920 fluorescence intensity (a.u.)
8 | TTAATTCAGACTATATGCATGCGTGGATGACATAGCATCGCGGAGTCACCTAGTGCAG | 4310 fluorescence intensity (a.u.)
9 | ATCTAAACACATTGTAGTAGGTAATGTGTCATCTAATCTTCGGAGTCACCTAGTGCAG | 3670 fluorescence intensity (a.u.)
10 | TCAACGCAGCATTAACACGTTTGCTCCCCTCGAACCAGACCGGAGTCACCTAGTGCAG | 3640 fluorescence intensity (a.u.)
11 | TACAAAATCATCCATCAACCGCAAAATCAGATATCGACCGCGGAGTCACCTAGTGCAG | 3800 fluorescence intensity (a.u.)
12 | GTCTTGACTCATCCATGTACGTATGCGTATGCCACTACGACGGAGTCACCTAGTGCAG | 4940 fluorescence intensity (a.u.)
13 | GTCTACTTCCTTTGTAATCTGTTCTCATCATCATCAATCCCGGAGTCACCTAGTGCAG | 4180 fluorescence intensity (a.u.)
14 | TTGAACTCGCTGCTGCAAAACAGATGGCGTCAGGCGATGACGGAGTCACCTAGTGCAG | 22100 fluorescence intensity (a.u.)
15 | GTCCCAGCGAGACCAGCGGCGTGGCGTCATCTCATTCTAACGGAGTCACCTAGTGCAG | 4620 fluorescence intensity (a.u.)
16 | TCCATCTCTTATTTGCAACGTGTGTTGAGAAGGAAGAGACCGGAGTCACCTAGTGCAG | 3370 fluorescence intensity (a.u.)
17 | TCCGGTCCAGCCACTGCACACAGTGCGTGTCGTCGTTTCACGGAGTCACCTAGTGCAG | 4330 fluorescence intensity (a.u.)
18 | ATTTGCCATATTTTGACTAGATTTGATAGCCGAGGCTATACGGAGTCACCTAGTGCAG | 5240 fluorescence intensity (a.u.)
19 | CGCACTCCGCCCCGAACGCCATGGATTCCAGCTCGGCGAGCGGAGTCACCTAGTGCAG | 3360 fluorescence intensity (a.u.)
20 | TGATGGCATCGCGTATACACGAGTACACTGACATGCCTCCCGGAGTCACCTAGTGCAG | 3140 fluorescence intensity (a.u.)
21 | TCATCAAAGTACTGAACTGAATTGATTGCAGCGTGTCATCCGGAGTCACCTAGTGCAG | 3290 fluorescence intensity (a.u.)
22 | CCAGCTGCAATCTAATGACGTAATTAAAGCGAATCGAGAGCGGAGTCACCTAGTGCAG | 4400 fluorescence intensity (a.u.)
23 | ATGTGAAGAGAGGCATAAATCATCATAATCATGGCAGCTGCGGAGTCACCTAGTGCAG | 3180 fluorescence intensity (a.u.)
24 | TGTTTAGAGGTGGTGACTCTTATTTGTAATCGTTGTTTGGCGGAGTCACCTAGTGCAG | 5540 fluorescence intensity (a.u.)
25 | CCACGTCCTTCTCCTCTAGGCCTCCCTGACGTCACGGTCGCGGAGTCACCTAGTGCAG | 14500 fluorescence intensity (a.u.)
26 | CTCGCCGCCGCGTGGATCCATCTCATCCCCTCGCCGCCGACGGAGTCACCTAGTGCAG | 6080 fluorescence intensity (a.u.)
27 | ATATATATATATATATATATATACACTATATACTATACCGCGGAGTCACCTAGTGCAG | 3260 fluorescence intensity (a.u.)

Some values from the results shown:
binding signal with TCATCAAAGTACTGAACTGAATTGATTGCAGCGTGTCATCCGGAGTCACCTAGTGCAG is entered as 3290 fluorescence intensity (a.u.)
binding signal with ATCTAAACACATTGTAGTAGGTAATGTGTCATCTAATCTTCGGAGTCACCTAGTGCAG is entered as 3670 fluorescence intensity (a.u.)
binding signal with CCAGCTGCAATCTAATGACGTAATTAAAGCGAATCGAGAGCGGAGTCACCTAGTGCAG is entered as 4400 fluorescence intensity (a.u.)
binding signal with TCCGGTCCAGCCACTGCACACAGTGCGTGTCGTCGTTTCACGGAGTCACCTAGTGCAG is entered as 4330 fluorescence intensity (a.u.)

(listing goes on)

Row | Sequence | binding signal
28 | AGAACTAATTTAACACGTAACAAAAGTTTAATGACCGAATCGGAGTCACCTAGTGCAG | 3580 fluorescence intensity (a.u.)
29 | GAGGCCACCACACAGGGAACAACACGTGGCGGACGCAACGCGGAGTCACCTAGTGCAG | 6200 fluorescence intensity (a.u.)
30 | GTTTTCTCGGGATAGGTGAGGTGTAAGTCCGAAGTTCCAACGGAGTCACCTAGTGCAG | 3150 fluorescence intensity (a.u.)
31 | ATTTCTTCTCTCCCATCACATGACACGGTCTTCTCTACTTCGGAGTCACCTAGTGCAG | 4310 fluorescence intensity (a.u.)
32 | CCCTAAACTCAGCACGTGTACTTCCGTGATAGGTGTTTAGCGGAGTCACCTAGTGCAG | 4240 fluorescence intensity (a.u.)
33 | CCGCACCAGCGCGCTCGTGCGCGCGGAGCTGGACGCGCTCCGGAGTCACCTAGTGCAG | 3320 fluorescence intensity (a.u.)
34 | TCCAGATCAAATCCGACGGCCCAGGATACGCCACGTCACCCGGAGTCACCTAGTGCAG | 46700 fluorescence intensity (a.u.)
35 | TTGTTTTATTAAATTCTTGCTAACACTACGTGTCATGCTGCGGAGTCACCTAGTGCAG | 8200 fluorescence intensity (a.u.)
36 | AACTTTCTGCCATCCTGCCTTCCCAGATCACAAATTCACACGGAGTCACCTAGTGCAG | 8410 fluorescence intensity (a.u.)
37 | CTCAACTGCTATGTCACCAATGCCTACATCCGCATTGACACGGAGTCACCTAGTGCAG | 4640 fluorescence intensity (a.u.)
38 | GATTTCTGTTTATTCCGATCTGTTAGACTGCTAGTCCCTACGGAGTCACCTAGTGCAG | 3730 fluorescence intensity (a.u.)
39 | GCGCGACGCCAGCGTCGCCGTCGTGCGTGGCGTGACGCCGCGGAGTCACCTAGTGCAG | 4096 fluorescence intensity (a.u.)
40 | TGTCCGCGCCACGTGGCAGGCGGCCGCTCATCCGTCGTGCCGGAGTCACCTAGTGCAG | 26000 fluorescence intensity (a.u.)
41 | CTCCTTCTGCTGTACACCTCGCGCAACTACTCCCTCCGTCCGGAGTCACCTAGTGCAG | 3490 fluorescence intensity (a.u.)
42 | GCCTCGTTTGATTGGTCACATGCATGGAAAGAGACTCACACGGAGTCACCTAGTGCAG | 16700 fluorescence intensity (a.u.)
43 | ATATTGTTGAATTGAGTAGTATCGTGTCATCGTTGAAAGGCGGAGTCACCTAGTGCAG | 21500 fluorescence intensity (a.u.)
44 | GTGTTGTCAACTCGTCACCCTTCTCCGCGTGCACGCTTTCCGGAGTCACCTAGTGCAG | 5040 fluorescence intensity (a.u.)
45 | TCTCTCTCGTAACTTCTCTCCTCCACCTCATCATATAATCCGGAGTCACCTAGTGCAG | 5460 fluorescence intensity (a.u.)
46 | TGTTCGTAGCAGTCGCTACGTCATTAGCTTCAACCGTTTTCGGAGTCACCTAGTGCAG | 11000 fluorescence intensity (a.u.)
47 | TATATATATATATATATATAGATTTATTGACATCTATATGCGGAGTCACCTAGTGCAG | 3660 fluorescence intensity (a.u.)
48 | CACCGAGCCTTCACGCGACGGCGGAAGAGATGACCGGCGGCGGAGTCACCTAGTGCAG | 5500 fluorescence intensity (a.u.)
49 | ACAATGTGAGACGCACTTGATAGTGAAAGTGAGGTGGCAACGGAGTCACCTAGTGCAG | 6950 fluorescence intensity (a.u.)
50 | AATCACAACTTTGCTTTCATCCACGTCGACAACATATACACGGAGTCACCTAGTGCAG | 12500 fluorescence intensity (a.u.)
51 | CTAGAGGCGCTCTCCCATGCCACGTCATACGGCTGGCCCCCGGAGTCACCTAGTGCAG | 32200 fluorescence intensity (a.u.)
52 | TTGTCAAAATCACCGACACGTACCAACCAGCTGGAGTATTCGGAGTCACCTAGTGCAG | 4080 fluorescence intensity (a.u.)
53 | AGAGAGAGAAAGATGGGAACGAGAACACCGAGGACCACATCGGAGTCACCTAGTGCAG | 12300 fluorescence intensity (a.u.)
54 | AAGGAATTTTCTCCAATTGTTTATACGCTTGAAAGTGTTTCGGAGTCACCTAGTGCAG | 3590 fluorescence intensity (a.u.)
